In assay [1] the target is CFP-tagged PCNA (CFP-PCNA) (UniProt P12004). The assay is described as follows: FRET or BRET; unpublished data: FRET of XPA wt or XPA F164A with PCNA in HeLa cells (endogenous XPA present).
Assay [2] has the same target. Description: FRET or BRET; sensitized emission, normalized FRET (N_FRET) between CFP- and YFP-tagged proteins in live, transiently transfected HeLa cells, 37°C.
Assay [3] shares this target. The assay is described as follows: FRET or BRET; sensitized emission, normalized FRET (N_FRET) between CFP- and YFP-tagged proteins in live, transiently transfected XPA-/- cells, 37°C.
Assay [4] concerns the target YFP-tagged proliferating cell nuclear antigen (YFP-PCNA) (UniProt P12004). The assay is described as follows: co-IP; α-YFP beads on soluble and chromatin-enriched fractions of HeLa cells stably expressing YFP-PCNA; extracts treated with a DNAse/RNAse cocktail; 4°C overnight; blot for endogenous XPA; also after UVR (unpublished data).
Assay [5] has as its target proliferating cell nuclear antigen (PCNA), endogenous (human (endogenous in HeLa)) (UniProt P12004). Description: co-IP; α-PCNA (PC10) beads on soluble and chromatin-enriched fractions of untransfected HeLa cells; extracts treated with a DNAse/RNAse cocktail; 4°C overnight; α-YFP beads as control; also after UVR (unpublished data).
Assay [6] deals with CFP-tagged PCNA (CFP-PCNA) (UniProt P12004). The assay is described as follows: FRET or BRET; sensitized emission, normalized FRET (N_FRET) between CFP- and YFP-tagged proteins in live, transiently transfected HeLa cells, 37°C. The source holds these as a separate data set.

By UniProt entry, the sequences of proteins in these tests, tags left out. Where a name states a change or a piece, a line headed by the entry shows the natural chain unless it says otherwise.
UniProt P12004: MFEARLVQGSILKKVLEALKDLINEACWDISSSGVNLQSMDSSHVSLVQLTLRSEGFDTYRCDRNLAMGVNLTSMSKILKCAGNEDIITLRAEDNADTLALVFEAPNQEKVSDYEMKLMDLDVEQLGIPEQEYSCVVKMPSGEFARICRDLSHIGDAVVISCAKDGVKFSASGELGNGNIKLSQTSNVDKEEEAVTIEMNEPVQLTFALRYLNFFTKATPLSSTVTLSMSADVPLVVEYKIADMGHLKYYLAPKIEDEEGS
UniProt P23025: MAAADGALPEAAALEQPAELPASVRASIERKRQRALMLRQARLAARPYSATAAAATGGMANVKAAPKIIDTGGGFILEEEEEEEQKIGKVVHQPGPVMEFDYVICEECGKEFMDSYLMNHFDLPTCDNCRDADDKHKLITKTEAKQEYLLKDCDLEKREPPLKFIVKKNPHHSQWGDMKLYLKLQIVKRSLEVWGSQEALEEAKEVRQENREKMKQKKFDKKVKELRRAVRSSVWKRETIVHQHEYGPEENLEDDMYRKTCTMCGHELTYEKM

These are yes or no findings as the source states them, for the method shown. In cells and extracts the contact can be indirect. Some entries that bind do so weakly or less than the wild type. For some of these results: Sequences can lack the tags named with a protein.

As for “YFP-XPA F164A (from UniProt P23025 1-273)”, the binding entry in assay [1] is “binds”.

Consider “YFP-tagged XPA (YFP-XPA) (from UniProt P23025 1-273)”, for which the binding entry in assay [2], in assay [1] and in assay [3] was “binds” in each case.

Turning to “xeroderma pigmentosum group A (XPA) protein, endogenous (from UniProt P23025 1-273)”, the binding entry in assay [4] and in assay [5] was “binds” in each case. Regarding MPLKFIVK (domain or fragment, UniProt P23025 161-167) [Met-XPA_(161−167)-YFP], the binding entry in assay [6] is “binds”.
